These are yes or no findings as the source states them, for the method shown. Binding seen in cells or lysates may run through a third protein. Some results given as binding are weak or reduced against the parent protein; the word gives no strength.

By UniProt entry, the sequences of proteins in these tests, tags left out. Residues count along the entry.
UniProt P04150: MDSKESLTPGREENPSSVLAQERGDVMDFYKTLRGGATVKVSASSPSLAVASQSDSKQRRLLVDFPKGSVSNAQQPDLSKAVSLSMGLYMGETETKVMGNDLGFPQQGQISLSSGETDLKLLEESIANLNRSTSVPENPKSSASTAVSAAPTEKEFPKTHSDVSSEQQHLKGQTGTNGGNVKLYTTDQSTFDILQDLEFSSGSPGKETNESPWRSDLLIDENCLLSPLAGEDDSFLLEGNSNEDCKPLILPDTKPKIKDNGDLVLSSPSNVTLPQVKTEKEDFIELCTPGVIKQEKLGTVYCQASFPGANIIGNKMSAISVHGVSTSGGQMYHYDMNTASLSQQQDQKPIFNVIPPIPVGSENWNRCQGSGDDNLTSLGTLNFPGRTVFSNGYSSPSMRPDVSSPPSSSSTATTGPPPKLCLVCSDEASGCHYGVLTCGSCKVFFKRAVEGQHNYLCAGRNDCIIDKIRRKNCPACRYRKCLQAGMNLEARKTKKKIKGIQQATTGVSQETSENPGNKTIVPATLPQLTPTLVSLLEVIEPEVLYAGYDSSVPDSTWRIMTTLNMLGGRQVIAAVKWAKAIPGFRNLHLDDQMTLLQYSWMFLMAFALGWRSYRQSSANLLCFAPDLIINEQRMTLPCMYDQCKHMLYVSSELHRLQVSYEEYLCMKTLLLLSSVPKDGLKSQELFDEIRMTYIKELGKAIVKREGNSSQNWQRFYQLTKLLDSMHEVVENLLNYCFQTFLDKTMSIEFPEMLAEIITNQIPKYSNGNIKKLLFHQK
UniProt P35869, residues 11-848: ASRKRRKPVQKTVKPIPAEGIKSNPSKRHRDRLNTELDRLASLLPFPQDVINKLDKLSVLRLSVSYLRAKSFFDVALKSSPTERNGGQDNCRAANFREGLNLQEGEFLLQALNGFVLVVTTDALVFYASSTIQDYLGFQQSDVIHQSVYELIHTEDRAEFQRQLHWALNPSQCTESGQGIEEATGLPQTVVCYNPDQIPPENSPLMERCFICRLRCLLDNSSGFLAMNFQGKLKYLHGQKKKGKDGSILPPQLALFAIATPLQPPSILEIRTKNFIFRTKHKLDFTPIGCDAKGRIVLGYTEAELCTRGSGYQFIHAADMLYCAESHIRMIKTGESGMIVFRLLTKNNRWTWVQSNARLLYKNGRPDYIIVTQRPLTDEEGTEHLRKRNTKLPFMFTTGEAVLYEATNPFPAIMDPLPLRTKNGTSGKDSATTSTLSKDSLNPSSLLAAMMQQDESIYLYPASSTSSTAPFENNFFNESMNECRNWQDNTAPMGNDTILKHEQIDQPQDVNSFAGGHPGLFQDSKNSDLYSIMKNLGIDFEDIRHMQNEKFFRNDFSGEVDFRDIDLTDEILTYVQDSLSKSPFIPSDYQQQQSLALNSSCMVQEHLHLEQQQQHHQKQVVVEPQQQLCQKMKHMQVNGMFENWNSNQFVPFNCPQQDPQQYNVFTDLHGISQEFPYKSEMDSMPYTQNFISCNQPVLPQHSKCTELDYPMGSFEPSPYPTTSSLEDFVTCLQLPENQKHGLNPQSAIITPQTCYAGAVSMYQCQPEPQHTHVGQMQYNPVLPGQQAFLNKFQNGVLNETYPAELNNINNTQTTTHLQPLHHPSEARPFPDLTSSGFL

The test addresses Glucocorticoid receptor (human) (UniProt P04150). Put plainly: co-IP; lysates (RIPA buffer) of ARPE-19 cells transfected with GR expression plasmid, 72 h; precipitated with anti-GR antibody or normal mouse IgG, blotted with anti-AHR or anti-GR antibody; cells untreated or treated with TCDD (30 nM), Dex (100 nM) or TCDD + Dex for 30 min.

Turning to “aryl hydrocarbon receptor (from UniProt P35869 11-848)”, the binding result is listed as “binds weakly”.
